From patent publication US10981926B2 (Janssen Pharmaceutica NV, priority 2016, dated 2021)
For at least one compound, name, drawing or mass did not settle the structure.

Tested on: rGABA-gated Cl− channel
Test: GABA-Gated Cl Channel Antagonist Radioligand Binding Assay
Set-up: species or system rat
Details: 10 μM single point, [35S]-TBPS, cerebral cortex membrane homogenates
Procedure: GABA-gated C1 Chanel assays were performed at CEREP according to the following method. Membrane homogenates of cerebral cortex (120 μg protein) were incubated for 120 min at 22° C. with 3 nM […] in the absence or presence of the test compound in a buffer containing 50 mM Na2HPO4/KH2PO4 (pH 7.4) and 500 mM NaCl. Nonspecific binding was determined in the presence of 20 μM picrotoxinin. Following incubation, the samples were filtered rapidly under vacuum through glass fiber filters (GF/B, Packard) presoaked with 0.3% PEI and rinsed several times with ice-cold 50 mM Tris-HCl using a 96-sample cell harvester (Unifilter, Packard). The filters were dried then counted for radioactivity in a scintillation counter (Topcount, Packard) using a scintillation cocktail (Microscint 0, Packard). The results are expressed as a percent inhibition of the control radio ligand specific binding. The standard reference compound is picrotoxinin, which was tested in each experiment at several concentrations to obtain a competition curve from which its IC50 was calculated. In this assay, the following representative compounds disclosed herein had recorded activities at a 10 μM single point concentration in the GABA-gated Cl— Channel Binding Assay.

In the case of `CN1CCC(Oc2ccc(N3C(=S)N(c4cnc(C#N)c(Cl)c4)C(=O)C34CCC4)cn2)CC1` [Cpd 26], the “rGABA-gated Cl− channel % inh @10 μM” value is reported as 21.6%.
